Experimental data published in PMC4864278.
These are yes or no findings as the source states them, for the method shown.

By UniProt entry, the sequences of proteins in these tests, tags left out. Residues count along the entry.
TRIM25 RING/B-box1+2 (1–202) (Q14258, residues 1-202): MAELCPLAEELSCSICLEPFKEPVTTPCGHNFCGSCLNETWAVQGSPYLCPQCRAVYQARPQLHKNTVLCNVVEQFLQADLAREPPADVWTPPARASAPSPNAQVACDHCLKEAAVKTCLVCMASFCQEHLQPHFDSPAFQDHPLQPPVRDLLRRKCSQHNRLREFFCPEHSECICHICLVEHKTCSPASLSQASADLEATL
TRIM25 RING/B-box1 (1–152) (Q14258, residues 1-152): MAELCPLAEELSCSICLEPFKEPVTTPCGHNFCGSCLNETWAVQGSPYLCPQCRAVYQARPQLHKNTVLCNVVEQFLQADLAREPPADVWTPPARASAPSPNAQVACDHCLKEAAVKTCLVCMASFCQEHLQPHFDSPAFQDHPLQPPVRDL
UniProt Q13049, residues 10-84: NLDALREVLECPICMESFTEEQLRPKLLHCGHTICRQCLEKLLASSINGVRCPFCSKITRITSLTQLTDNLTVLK

Tests used:
[1] = molecular target: TRIM25 RING/B-box1 (1–152) (UniProt Q14258); assay: SEC-MALS; SEC-MALLS, Superdex 75 or Superdex 200 10/300 GL, 25°C, 20 mM HEPES pH 7.5, 100 mM NaCl (TRIM32) or 150 mM NaCl (TRIM25), 0.5 mM TCEP, 3 mM NaN3; samples run over a range of concentrations; both purified
[2] = molecular target: TRIM25 RING/B-box1 (1–152) (UniProt Q14258); assay: SAXS; batch SAXS, Diamond Light Source beamline B21; at least three dilutions of each construct; concentrations as in Table 2; both purified
[3] = molecular target: TRIM25 RING/B-box1+2 (1–202) (UniProt Q14258); assay: SEC-MALS; SEC-MALLS, Superdex 75 or Superdex 200 10/300 GL, 25°C, 20 mM HEPES pH 7.5, 100 mM NaCl (TRIM32) or 150 mM NaCl (TRIM25), 0.5 mM TCEP, 3 mM NaN3; samples run over a range of concentrations; both purified
[4] = molecular target: TRIM25 RING/B-box1+2 (1–202) (UniProt Q14258); assay: SAXS; batch SAXS, Diamond Light Source beamline B21; at least three dilutions of each construct; concentrations as in Table 2; both purified
[5] = molecular target: TRIM32 core RING construct (UniProt Q13049); assay: SEC-MALS; SEC-MALLS, Superdex 75 or Superdex 200 10/300 GL, 25°C, 20 mM HEPES pH 7.5, 100 mM NaCl (TRIM32) or 150 mM NaCl (TRIM25), 0.5 mM TCEP, 3 mM NaN3; samples run over a range of concentrations; both purified
[6] = molecular target: TRIM32 core RING construct (UniProt Q13049); assay: SAXS; batch SAXS, Diamond Light Source beamline B21; at least three dilutions of each construct; concentrations as in Table 2; both purified

TRIM25 RING/B-box1 (1–152) (from UniProt Q14258 1-152) (domain or fragment)
binding [1]: no binding (tested: 3.2 mg/ml)
binding [2]: no binding (tested: 3.5 mg/ml)

TRIM25 RING/B-box1+2 (1–202) (from UniProt Q14258 1-202) (domain or fragment)
binding [3]: no binding (tested: 3.6 mg/ml)
binding [4]: no binding (tested: 3.5 mg/ml)

TRIM32 core RING construct (from UniProt Q13049 10-84) (domain or fragment)
binding [5]: no binding (tested: 3 mg/ml)
binding [6]: no binding (tested: 2.0 mg/ml)
